According to the supplement of paper PMC7646827:
Repeats are few or missing, and single values can be far off.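 All cells are established human bladder cancer lines, one derived from a patient-derived xenograft. A luminescent ATP assay measured viability as percent inhibition relative to vehicle across seven dilutions. The paper rates scores above 59 very active, 30–59 active, 21–29 semi-active, 9–20 low active, below 9 inactive.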

How the values were obtained:
Experiment in all cases: drug sensitivity score DSS3 (score 0-100); higher = more sensitive; extreme values may be limits of the assay
Conditions in all cases: culture: 3D, ultra-low attachment; treatment time: 5 days
5637 = system: 5637
BC8149 = system: BC8149
J82 = system: J82
SCaBER = system: SCaBER
SW780 = system: SW780
T-24 = system: T-24
TCCSUP = system: TCCSUP
UM-UC-12 = system: UM-UC-12
UM-UC-14 = system: UM-UC-14
UM-UC-15 = system: UM-UC-15
UM-UC-17 = system: UM-UC-17
UM-UC-18 = system: UM-UC-18
UM-UC-1 = system: UM-UC-1
UM-UC-3 = system: UM-UC-3
UM-UC-5 = system: UM-UC-5
UM-UC-6 = system: UM-UC-6
UM-UC-9 = system: UM-UC-9

COc1ccccc1C(=O)Nc1cc2c(cc1N1CCCC1)n(C)c(=O)n2C [PFI-4] (max dose 10000 nM)
drug sensitivity score DSS3 5637: 0
drug sensitivity score DSS3 (BC8149): 0
drug sensitivity score DSS3 (J82): 0
drug sensitivity score DSS3 (SCaBER): 0
drug sensitivity score DSS3 (SW780): 0
drug sensitivity score DSS3 (T-24): 0
drug sensitivity score DSS3 (TCCSUP): 0
drug sensitivity score DSS3 (UM-UC-12): 0
drug sensitivity score DSS3 (UM-UC-14): 8.3e-07
drug sensitivity score DSS3 (UM-UC-15): 0
drug sensitivity score DSS3 (UM-UC-17): 0
drug sensitivity score DSS3 (UM-UC-18): 0
drug sensitivity score DSS3 (UM-UC-1): 0
drug sensitivity score DSS3 (UM-UC-3): 0.0692
drug sensitivity score DSS3 (UM-UC-5): 0
drug sensitivity score DSS3 (UM-UC-6): 0.212
drug sensitivity score DSS3 (UM-UC-9): 0

O=C(O)CCN1C(=O)/C(=C/c2ccc(-c3ccc([N+](=O)[O-])cc3)o2)SC1=S [KYA1797K] (max dose 10000 nM)
drug sensitivity score DSS3 5637: 0
drug sensitivity score DSS3 (BC8149): 0
drug sensitivity score DSS3 (J82): 0
drug sensitivity score DSS3 (SCaBER): 0
drug sensitivity score DSS3 (SW780): 0
drug sensitivity score DSS3 (T-24): 0
drug sensitivity score DSS3 (TCCSUP): 0
drug sensitivity score DSS3 (UM-UC-12): 0
drug sensitivity score DSS3 (UM-UC-14): 0
drug sensitivity score DSS3 (UM-UC-15): 1.17
drug sensitivity score DSS3 (UM-UC-17): 0
drug sensitivity score DSS3 (UM-UC-18): 0.404
drug sensitivity score DSS3 (UM-UC-1): 0
drug sensitivity score DSS3 (UM-UC-3): 0
drug sensitivity score DSS3 (UM-UC-5): 0
drug sensitivity score DSS3 (UM-UC-6): 0
drug sensitivity score DSS3 (UM-UC-9): 0

NC(=O)Nc1cc(-c2cccc(F)c2)sc1C(=O)N[C@H]1CCCNC1 [AZD7762] (max dose 10000 nM)
drug sensitivity score DSS3 5637: 16.6
drug sensitivity score DSS3 (BC8149): 10.7
drug sensitivity score DSS3 (J82): 1.23
drug sensitivity score DSS3 (SCaBER): 6.81
drug sensitivity score DSS3 (SW780): 0
drug sensitivity score DSS3 (T-24): 0
drug sensitivity score DSS3 (TCCSUP): 31.8
drug sensitivity score DSS3 (UM-UC-12): 1.88
drug sensitivity score DSS3 (UM-UC-14): 6.46
drug sensitivity score DSS3 (UM-UC-15): 0
drug sensitivity score DSS3 (UM-UC-17): 3.78
drug sensitivity score DSS3 (UM-UC-18): 15.1
drug sensitivity score DSS3 (UM-UC-1): 15.5
drug sensitivity score DSS3 (UM-UC-3): 4.41
drug sensitivity score DSS3 (UM-UC-5): 7.7
drug sensitivity score DSS3 (UM-UC-6): 15
drug sensitivity score DSS3 (UM-UC-9): 0.249

Cc1cc(-c2ncc(CC(=O)Nc3ccc(-c4cnccn4)cn3)cc2C)ccn1 [LGK-974] (max dose 10000 nM)
drug sensitivity score DSS3 5637: 0
drug sensitivity score DSS3 (BC8149): 0
drug sensitivity score DSS3 (J82): 0
drug sensitivity score DSS3 (SCaBER): 0
drug sensitivity score DSS3 (SW780): 0
drug sensitivity score DSS3 (T-24): 0
drug sensitivity score DSS3 (TCCSUP): 2.63
drug sensitivity score DSS3 (UM-UC-12): 0
drug sensitivity score DSS3 (UM-UC-14): 4.64
drug sensitivity score DSS3 (UM-UC-15): 0
drug sensitivity score DSS3 (UM-UC-17): 0
drug sensitivity score DSS3 (UM-UC-18): 0
drug sensitivity score DSS3 (UM-UC-1): 1.29
drug sensitivity score DSS3 (UM-UC-3): 0
drug sensitivity score DSS3 (UM-UC-5): 0
drug sensitivity score DSS3 (UM-UC-6): 2.35
drug sensitivity score DSS3 (UM-UC-9): 0

C=C[C@@H]1C[C@]1(NC(=O)[C@@H]1C[C@@H](Oc2ncc(OC)c3ccc(Cl)cc23)CN1C(=O)[C@@H](NC(=O)OC(C)(C)C)C(C)(C)C)C(=O)NS(=O)(=O)C1CC1 [Asunaprevir] (max dose 10000 nM)
drug sensitivity score DSS3 5637: 0
drug sensitivity score DSS3 (BC8149): 0
drug sensitivity score DSS3 (J82): 0
drug sensitivity score DSS3 (SCaBER): 0
drug sensitivity score DSS3 (SW780): 0
drug sensitivity score DSS3 (T-24): 0
drug sensitivity score DSS3 (TCCSUP): 0
drug sensitivity score DSS3 (UM-UC-12): 0
drug sensitivity score DSS3 (UM-UC-14): 0
drug sensitivity score DSS3 (UM-UC-15): 0
drug sensitivity score DSS3 (UM-UC-17): 0
drug sensitivity score DSS3 (UM-UC-18): 0
drug sensitivity score DSS3 (UM-UC-1): 0
drug sensitivity score DSS3 (UM-UC-3): 0
drug sensitivity score DSS3 (UM-UC-5): 0
drug sensitivity score DSS3 (UM-UC-6): 0
drug sensitivity score DSS3 (UM-UC-9): 0

COC(=O)Nc1nc2cc(C(=O)c3cccs3)ccc2[nH]1 [Nocodazole] (max dose 10000 nM)
drug sensitivity score DSS3 5637: 19.8
drug sensitivity score DSS3 (BC8149): 7.52
drug sensitivity score DSS3 (J82): 0
drug sensitivity score DSS3 (SCaBER): 0.124
drug sensitivity score DSS3 (SW780): 9.24
drug sensitivity score DSS3 (T-24): 0.334
drug sensitivity score DSS3 (TCCSUP): 21.6
drug sensitivity score DSS3 (UM-UC-12): 4.63
drug sensitivity score DSS3 (UM-UC-14): 13
drug sensitivity score DSS3 (UM-UC-15): 0
drug sensitivity score DSS3 (UM-UC-17): 24.2
drug sensitivity score DSS3 (UM-UC-18): 0
drug sensitivity score DSS3 (UM-UC-1): 13.9
drug sensitivity score DSS3 (UM-UC-3): 11.3
drug sensitivity score DSS3 (UM-UC-5): 0
drug sensitivity score DSS3 (UM-UC-6): 17.5
drug sensitivity score DSS3 (UM-UC-9): 3.84

CC(C)[C@]12O[C@H]1[C@@H]1O[C@]13[C@]1(O[C@H]1C[C@H]1C4=C(CC[C@@]13C)C(=O)OC4)[C@@H]2O [Triptolide (PG490)] (max dose 10000 nM)
drug sensitivity score DSS3 5637: 68.2
drug sensitivity score DSS3 (BC8149): 64.1
drug sensitivity score DSS3 (J82): 66.8
drug sensitivity score DSS3 (SCaBER): 68.5
drug sensitivity score DSS3 (SW780): 49.9
drug sensitivity score DSS3 (T-24): 56
drug sensitivity score DSS3 (TCCSUP): 63.6
drug sensitivity score DSS3 (UM-UC-12): 47.6
drug sensitivity score DSS3 (UM-UC-14): 64.2
drug sensitivity score DSS3 (UM-UC-15): 74
drug sensitivity score DSS3 (UM-UC-17): 70.7
drug sensitivity score DSS3 (UM-UC-18): 69.6
drug sensitivity score DSS3 (UM-UC-1): 61.8
drug sensitivity score DSS3 (UM-UC-3): 55.9
drug sensitivity score DSS3 (UM-UC-5): 68.5
drug sensitivity score DSS3 (UM-UC-6): 62.6
drug sensitivity score DSS3 (UM-UC-9): 45.5

C=C1C[C@@H]2[C@H](CC[C@]3(C)C(=O)CC[C@@H]23)[C@@]2(C)C=CC(=O)C=C12 [Exemestane] (max dose 10000 nM)
drug sensitivity score DSS3 5637: 4.02
drug sensitivity score DSS3 (BC8149): 0.026
drug sensitivity score DSS3 (J82): 2.29
drug sensitivity score DSS3 (SCaBER): 0
drug sensitivity score DSS3 (SW780): 0
drug sensitivity score DSS3 (T-24): 0
drug sensitivity score DSS3 (TCCSUP): 3.96
drug sensitivity score DSS3 (UM-UC-12): 0
drug sensitivity score DSS3 (UM-UC-14): 0.547
drug sensitivity score DSS3 (UM-UC-15): 0
drug sensitivity score DSS3 (UM-UC-17): 1.5
drug sensitivity score DSS3 (UM-UC-18): 5.38
drug sensitivity score DSS3 (UM-UC-1): 1.2
drug sensitivity score DSS3 (UM-UC-3): 0
drug sensitivity score DSS3 (UM-UC-5): 0
drug sensitivity score DSS3 (UM-UC-6): 0.906
drug sensitivity score DSS3 (UM-UC-9): 0

Cc1ccc(OCC(O)C(C)NC(C)C)c2c1CCC2 (centres undefined) (max dose 10000 nM)
drug sensitivity score DSS3 5637: 8.86
drug sensitivity score DSS3 (BC8149): 4.86
drug sensitivity score DSS3 (J82): 0
drug sensitivity score DSS3 (SCaBER): 8.47
drug sensitivity score DSS3 (SW780): 0
drug sensitivity score DSS3 (T-24): 0.599
drug sensitivity score DSS3 (TCCSUP): 17.3
drug sensitivity score DSS3 (UM-UC-12): 0
drug sensitivity score DSS3 (UM-UC-14): 1.88
drug sensitivity score DSS3 (UM-UC-15): 0
drug sensitivity score DSS3 (UM-UC-17): 2.1
drug sensitivity score DSS3 (UM-UC-18): 7.31
drug sensitivity score DSS3 (UM-UC-1): 7.15
drug sensitivity score DSS3 (UM-UC-3): 2.9
drug sensitivity score DSS3 (UM-UC-5): 0.646
drug sensitivity score DSS3 (UM-UC-6): 3.47
drug sensitivity score DSS3 (UM-UC-9): 0

CCc1cc(Nc2nccc(-c3c(-c4ccc(OC)c(C(=O)Nc5c(F)cccc5F)c4)nc4ccccn34)n2)c(OC)cc1N1CCC(N2CCN(S(C)(=O)=O)CC2)CC1 (max dose 10000 nM)
drug sensitivity score DSS3 5637: 0
drug sensitivity score DSS3 (BC8149): 0
drug sensitivity score DSS3 (J82): 0
drug sensitivity score DSS3 (SCaBER): 0
drug sensitivity score DSS3 (SW780): 0
drug sensitivity score DSS3 (T-24): 0
drug sensitivity score DSS3 (TCCSUP): 0
drug sensitivity score DSS3 (UM-UC-12): 0
drug sensitivity score DSS3 (UM-UC-14): 0
drug sensitivity score DSS3 (UM-UC-15): 0
drug sensitivity score DSS3 (UM-UC-17): 0
drug sensitivity score DSS3 (UM-UC-18): 0
drug sensitivity score DSS3 (UM-UC-1): 0
drug sensitivity score DSS3 (UM-UC-3): 0
drug sensitivity score DSS3 (UM-UC-5): 0
drug sensitivity score DSS3 (UM-UC-6): 0
drug sensitivity score DSS3 (UM-UC-9): 0

COc1cc2c(cc1O)CC[C@@H]1[C@@H]2CC[C@]2(C)[C@@H](O)CC[C@@H]12 [2-Methoxyestradiol (2-MeOE2)] (max dose 10000 nM)
drug sensitivity score DSS3 5637: 20.1
drug sensitivity score DSS3 (BC8149): 13.5
drug sensitivity score DSS3 (J82): 0.451
drug sensitivity score DSS3 (SCaBER): 0.943
drug sensitivity score DSS3 (SW780): 0
drug sensitivity score DSS3 (T-24): 0
drug sensitivity score DSS3 (TCCSUP): 19.1
drug sensitivity score DSS3 (UM-UC-12): 10
drug sensitivity score DSS3 (UM-UC-14): 0.0912
drug sensitivity score DSS3 (UM-UC-15): 0
drug sensitivity score DSS3 (UM-UC-17): 3.61
drug sensitivity score DSS3 (UM-UC-18): 5.18
drug sensitivity score DSS3 (UM-UC-1): 4.62
drug sensitivity score DSS3 (UM-UC-3): 23.1
drug sensitivity score DSS3 (UM-UC-5): 13.9
drug sensitivity score DSS3 (UM-UC-6): 0.211
drug sensitivity score DSS3 (UM-UC-9): 4.19

Nc1ccccc1NC(=O)c1ccc(CNc2nccc(-c3cccnc3)n2)cc1 [Mocetinostat (MGCD0103)] (max dose 10000 nM)
drug sensitivity score DSS3 5637: 20.1
drug sensitivity score DSS3 (BC8149): 41.9
drug sensitivity score DSS3 (J82): 4.86
drug sensitivity score DSS3 (SCaBER): 37.8
drug sensitivity score DSS3 (SW780): 1.72
drug sensitivity score DSS3 (T-24): 7.25
drug sensitivity score DSS3 (TCCSUP): 47.7
drug sensitivity score DSS3 (UM-UC-12): 4.24
drug sensitivity score DSS3 (UM-UC-14): 2.86
drug sensitivity score DSS3 (UM-UC-15): 0
drug sensitivity score DSS3 (UM-UC-17): 2.3
drug sensitivity score DSS3 (UM-UC-18): 10.1
drug sensitivity score DSS3 (UM-UC-1): 2.41
drug sensitivity score DSS3 (UM-UC-3): 1.27
drug sensitivity score DSS3 (UM-UC-5): 5.59
drug sensitivity score DSS3 (UM-UC-6): 3
drug sensitivity score DSS3 (UM-UC-9): 1.88
